The text below walks through data of patent US20230374038A1, “MODULATORS OF CYSTIC FIBROSIS TRANSMEMBRANE CONDUCTANCE REGULATOR” (VERTEX PHARMACEUTICALS INCORPORATED, priority 2020, published 2023).

The chains behind the UniProt entries cited, without tags or fusion partners. A line that says so, or that is headed by a name, gives the form on record, which may keep a tag or linker.
UniProt P13569, with tags, fused parts or gaps DEL508-508: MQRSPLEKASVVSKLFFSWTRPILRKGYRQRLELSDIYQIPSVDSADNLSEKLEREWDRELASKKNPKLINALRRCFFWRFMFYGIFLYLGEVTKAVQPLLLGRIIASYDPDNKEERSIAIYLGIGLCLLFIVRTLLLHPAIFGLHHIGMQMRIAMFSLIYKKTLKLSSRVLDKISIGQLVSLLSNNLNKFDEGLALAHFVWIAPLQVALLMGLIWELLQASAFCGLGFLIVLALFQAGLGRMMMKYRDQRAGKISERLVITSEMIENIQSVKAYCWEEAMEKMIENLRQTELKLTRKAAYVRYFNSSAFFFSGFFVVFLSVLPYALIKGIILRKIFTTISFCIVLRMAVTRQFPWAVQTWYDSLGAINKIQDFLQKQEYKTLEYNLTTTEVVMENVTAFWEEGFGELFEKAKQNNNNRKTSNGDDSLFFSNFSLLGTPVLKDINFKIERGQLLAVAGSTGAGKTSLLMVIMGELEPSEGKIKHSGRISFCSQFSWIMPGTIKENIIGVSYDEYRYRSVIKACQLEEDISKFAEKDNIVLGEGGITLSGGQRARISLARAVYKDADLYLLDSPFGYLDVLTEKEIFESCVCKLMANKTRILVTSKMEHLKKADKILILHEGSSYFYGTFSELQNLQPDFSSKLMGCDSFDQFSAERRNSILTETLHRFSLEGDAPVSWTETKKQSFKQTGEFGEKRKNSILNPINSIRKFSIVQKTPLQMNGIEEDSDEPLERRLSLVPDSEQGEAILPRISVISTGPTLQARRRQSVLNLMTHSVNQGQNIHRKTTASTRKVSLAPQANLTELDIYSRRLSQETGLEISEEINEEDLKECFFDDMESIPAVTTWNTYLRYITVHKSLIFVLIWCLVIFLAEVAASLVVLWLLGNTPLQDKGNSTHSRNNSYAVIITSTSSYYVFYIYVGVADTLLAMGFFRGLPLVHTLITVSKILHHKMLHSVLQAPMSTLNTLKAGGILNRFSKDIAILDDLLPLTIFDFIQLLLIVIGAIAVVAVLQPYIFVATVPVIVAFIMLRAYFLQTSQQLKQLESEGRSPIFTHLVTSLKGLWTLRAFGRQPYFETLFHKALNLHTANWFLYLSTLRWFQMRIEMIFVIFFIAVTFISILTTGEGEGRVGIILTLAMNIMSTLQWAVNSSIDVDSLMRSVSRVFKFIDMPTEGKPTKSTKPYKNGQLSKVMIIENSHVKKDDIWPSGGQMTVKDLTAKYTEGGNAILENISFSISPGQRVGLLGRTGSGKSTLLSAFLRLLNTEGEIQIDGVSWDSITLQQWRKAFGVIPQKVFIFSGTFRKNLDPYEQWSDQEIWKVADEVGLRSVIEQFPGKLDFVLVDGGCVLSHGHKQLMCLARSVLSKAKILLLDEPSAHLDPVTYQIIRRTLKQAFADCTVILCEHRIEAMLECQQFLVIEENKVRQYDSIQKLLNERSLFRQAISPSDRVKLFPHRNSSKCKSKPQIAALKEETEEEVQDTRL

In assay [1] the target is CFTR (Homo sapiens, UniProt P13569, DEL508-508). Put plainly: HBE Assay: Ussing chamber assay of CFTR-mediated short-circuit currents in F508del/MF-HBE cells with 1 μM Ivacaftor. As to conditions: for HBE Max Activity: 18-24 hours, 20% human serum; for EC50: read-out: HBE EC50, 18-24 hours, 20% human serum. Here is the method: Ussing chamber experiments were performed using human bronchial epithelial (HBE) cells derived from CF subjects heterozygous for F508del and a minimal function CFTR mutation (F508del/MF-HBE) and cultured as previously described (Neuberger T, Burton B, Clark H, Van Goor F Methods Mol Biol 2011:741:39-54). After four days the apical media was removed, and the cells were grown at an air liquid interface for >14 days prior to use.
(§1) To isolate the CFTR-mediated short-circuit (ISC) current, F508del/MF-HBE grown on Costar® Snapwell™ cell culture inserts were mounted in an Ussing chamber and the transepithelial ISC was measured under voltage-clamp recording conditions (Vhold=0 mV) at 37° C. The basolateral solution contained (in mM) 145 NaCl, 0.83 K2HIPO4, 3.3 KH2PO4, 1.2 MgCl2, 1.2 CaCl2), 10 Glucose, 10 HEPES (pH adjusted to 7.4 with NaOH) and the apical solution contained (in mM) 145 NaGluconate, 1.2 MgCl2, 1.2 CaCl2), 10 glucose, 10 HEPES (pH adjusted to 7.4 with NaOH) and 30 μM amiloride to block the epithelial sodium channel. Forskolin (20 μM) was added to the apical surface to activate CFTR, followed by apical addition of a CFTR inhibitor cocktail consisting of BPO, GlyH-101, and CFTR inhibitor 172 (each at 20 μM final assay concentration) to specifically isolate CFTR currents. The CFTR-mediated ISC (μA/cm^2) for each condition was determined from the peak forskolin response to the steady-state current following inhibition.
The activity of the CFTR corrector compounds on the CFTR-mediated ISC was determined in Ussing chamber studies as described above. The F508del/MF-HBE cell cultures were either incubated with the corrector compounds at a range of concentrations in combination with 1 μM Ivacaftor or were incubated with the corrector compounds at a single fixed concentration of 10 μM in combination with 1 μM Ivacaftor for 18-24 hours at 37° C. and in the presence of 20% human serum. The concentration of corrector compounds with 1 μM Ivacaftor during the 18-24 hours incubations was kept constant throughout the Ussing chamber measurement of the CFTR-mediated ISC to ensure compounds were present throughout the entire experiment. The efficacy and potency of the putative F508del correctors was compared to that of the known Vertex corrector, (14S)-8-[3-(2-{Dispiro[2.0.2.1]heptan-7-yl}ethoxy)-1H-pyrazol-1-yl]-12,12-dimethyl-2λ^6-thia-3,9,11,18,23-pentaazatetracyclo[17.3.1.111,14.05,10]tetracosa-1(22),5,7,9,19(23),20-hexaene-2,2,4-trione, in combination with 18 μM Tezacaftor and 1 μM Ivacaftor.
as §1, with “K2HPO4,” for “K2HIPO4,”

Assay [2] concerns the target T1, CFTR (Homo sapiens, UniProt P13569). Kind of assay: Membrane Potential Dye, Enteroid Assay B. The conditions noted are these: for EC50: read-out: Ent. B EC50. As for the experimental part: (§2) Base medium (ADF+++) consisted of Advanced DMEM/Ham's F12, 2 mM Glutamax, 10 mM HEPES, 1 µg/mL penicillin/streptomycin.
(§3) Intestinal enteroid maintenance medium (IEMM) consisted of ADF+++, 1× B27 supplement, 1× N2 supplement, 1.25 mM N-acetyl cysteine, 10 mM Nicotinamide, 50 ng/mL hEGF, 10 nM Gastrin, 1 pg/mL hR-spondin-1, 100 ng/mL hNoggin, TGF-b type 1 inhibitor A-83-01, 100 μg/mL Primocin, […] P38 MAPK inhibitor SB202190.
(§4) Bath 1 Buffer consisted of 1 mM MgCl2, 160 mM NaCl, 4.5 mM KCl, 10 mM HEPES, 10 mM Glucose, 2 mM CaCl2).
(§5) Chloride Free Buffer consisted of 1 mM Magnesium Gluconate, 2 mM Calcium Gluconate, 4.5 mM Potassium Gluconate, 160 mM Sodium Gluconate, 10 mM HEPES, 10 mM Glucose.
(§6) Bath1 Dye Solution consisted of Bath 1 Buffer, 0.04% Pluronic F127, […] Methyl Oxonol, 30 μM CaCCinh-A01, 30 μM Chicago Sky Blue.
(§7) Chloride Free Dye Solution consisted of Chloride Free Buffer, 0.04% Pluronic F127, 20 μM Methyl Oxonol, 30 μM CaCCinh-A01, 30 μM Chicago Sky Blue.
Chloride Free Dye Stimulation Solution consisted of Chloride Free Dye Solution, 10 μM forskolin, 100 μM IBMX, and 300 nM Compound III.
Human intestinal epithelial enteroid cells were obtained from the Hubrecht Institute for Developmental Biology and Stem Cell Research, Utrecht, The Netherlands and expanded in T-Flasks as previously described (Dekkers J F, Wiegerinck C L, de Jonge H R, Bronsveld I, Janssens H M, de Winter-de Groot K M, Brandsma A M, de Jong N W M, Bijvelds M J C, Scholte B J, Nieuwenhuis E E S, van den Brink S, Clevers H, van der Ent C K, Middendorp S and M Beekman J M. A functional CFTR assay using primary cystic fibrosis intestinal organoids. Nat Med. 2013 July; 19(7):939-45.).
Cells were recovered in cell recovery solution, collected by centrifugation at 650 rpm for 5 min at 4° C., resuspended in TryPLE and incubated for 5 min at 37° C. […]
Enteroid cells were incubated with test compound in IEMM for 18-24 hours at 37° C., 95% humidity and 5% CO2. […] Chloride transport was initiated by addition of Chloride Free Dye Stimulation Solution and the fluorescence signal was read for 15 min. […] Chloride transport was then expressed as a percentage of the chloride transport following treatment with 1 μM (14S)-8-[3-(2-{Dispiro[2.0.2.1]heptan-7-yl}ethoxy)-1H-pyrazol-1-yl]-12,12-dimethyl-2λ^6-thia-3,9,11,18,23-pentaazatetracyclo[17.3.1.111,14.05,10]tetracosa-1(22),5,7,9,19(23),20-hexaene-2,2,4-trione, 3 μM (R)-1-(2,2-difluorobenzo[d][1,3]dioxol-5-yl)-N-(1-(2,3-dihydroxypropyl)-6-fluoro-2-(1-hydroxy-2-methylpropan-2-yl)-1H-indol-5-yl)cyclopropanecarboxamide and 300 nM acute N-[2,4-bis(1,1-dimethylethyl)-5-hydroxyphenyl]-1,4-dihydro-4-oxoquinoline-3-carboxamide triple combination control (% Activity).

For assay [3], the target named is T1, CFTR. Put plainly: Membrane Potential Dye, Enteroid Assay A. Here is the method:
as §2, §3, §4, §5, §6, §7
Chloride Free Dye Stimulation Solution consisted of Chloride Free Dye Solution, 10 μM forskolin, 100 μM IBMX, and 300 nM Compound III. […]
Enteroid cells were incubated with test compound in IEMM for 18-24 hours at 37° C., 95% humidity and 5% CO2. […] Chloride transport was initiated by addition of Chloride Free Dye Stimulation Solution and the fluorescence signal was read for 15 min. […]

For orientation: EC50 means the concentration needed to bring the measured effect to its halfway point.

Structures were worked out from names or drawings and are uncertain.

For `Cc1cccc(CC(C)C)c1-c1nc2nc(c1C)OC[C@@H](CC(C)(C)C)N(Cc1nccc(N(C)C(C)C)n1)C(=O)c1cccc(c1)S(=O)(=O)N2`, at CFTR [1], the “HBE Max Activity” value is on record as “+++ (+++ is >600%)” and the half-maximal effective concentration (EC50) was under 1000 nM.
As for `COc1ccc(-c2c3nc(nc2-c2c(C)cccc2C)NS(=O)(=O)c2cccc(c2)C(=O)N[C@H](CC(C)C)CO3)cc1`, at CFTR [2], the “Ent. B Max Activity” value was “+++ (+++ is >60%)” and the concentration for a half-maximal effect (EC50) is under 1000 nM.
Take `Cc1ccccc1-c1nc2nc(c1C(F)(F)F)OCC1CN(CCC3(C(F)(F)F)CC3)CCN1C(=O)c1cccc(c1)S(=O)(=O)N2` (stereo not drawn): the “Ent. A Max Activity” value on CFTR [3] was “++ (++ is 30-60%)”. For the same compound, the half-maximal effective concentration (EC50) at CFTR [3] (read-out: Ent. A EC50) was in the range of 1000 to 3000 nM.
`Cc1cccc(CC(C)C)c1-c1nc2nc(c1C)OC[C@@H](CC(C)C)N(Cc1ncc(OC(C)C)cn1)C(=O)c1cccc(c1)S(=O)(=O)N2`: on CFTR [1], the “HBE Max Activity” value is “+++ (+++ is >600%)” and the concentration giving a half-maximal response (EC50) was under 1000 nM.
With `Cc1cccc(C)c1-c1nc2nc(c1-c1ccccn1)OC[C@@H](C)NC(=O)c1cccc(c1)S(=O)(=O)N2`, on CFTR [2], the “Ent. B Max Activity” value is “+ (+ is <30%)” and the 50% effective concentration (EC50) fell in the range of 3000 to 30000 nM.
For the compound `Cc1cccc(C)c1-c1nc2nc(c1C)OC[C@@H](CC(C)C)N(Cc1cncc(N(C)CC(C)(C)C)n1)C(=O)c1cccc(c1)S(=O)(=O)N2`, at CFTR [1], the “HBE Max Activity” value is recorded as “+++ (+++ is >600%)” and the half-maximal effective concentration (EC50) was under 1000 nM.
